Experimental data: US20140066620A1, “PYRIMIDINE SUBSTITUTED PURINE DERIVATIVES” (VERASTEM, INC., priority 2007, published 2014)

Sequences of proteins named here, by UniProt entry; tags and fusion partners are left off.
UniProt P42336, whole entry: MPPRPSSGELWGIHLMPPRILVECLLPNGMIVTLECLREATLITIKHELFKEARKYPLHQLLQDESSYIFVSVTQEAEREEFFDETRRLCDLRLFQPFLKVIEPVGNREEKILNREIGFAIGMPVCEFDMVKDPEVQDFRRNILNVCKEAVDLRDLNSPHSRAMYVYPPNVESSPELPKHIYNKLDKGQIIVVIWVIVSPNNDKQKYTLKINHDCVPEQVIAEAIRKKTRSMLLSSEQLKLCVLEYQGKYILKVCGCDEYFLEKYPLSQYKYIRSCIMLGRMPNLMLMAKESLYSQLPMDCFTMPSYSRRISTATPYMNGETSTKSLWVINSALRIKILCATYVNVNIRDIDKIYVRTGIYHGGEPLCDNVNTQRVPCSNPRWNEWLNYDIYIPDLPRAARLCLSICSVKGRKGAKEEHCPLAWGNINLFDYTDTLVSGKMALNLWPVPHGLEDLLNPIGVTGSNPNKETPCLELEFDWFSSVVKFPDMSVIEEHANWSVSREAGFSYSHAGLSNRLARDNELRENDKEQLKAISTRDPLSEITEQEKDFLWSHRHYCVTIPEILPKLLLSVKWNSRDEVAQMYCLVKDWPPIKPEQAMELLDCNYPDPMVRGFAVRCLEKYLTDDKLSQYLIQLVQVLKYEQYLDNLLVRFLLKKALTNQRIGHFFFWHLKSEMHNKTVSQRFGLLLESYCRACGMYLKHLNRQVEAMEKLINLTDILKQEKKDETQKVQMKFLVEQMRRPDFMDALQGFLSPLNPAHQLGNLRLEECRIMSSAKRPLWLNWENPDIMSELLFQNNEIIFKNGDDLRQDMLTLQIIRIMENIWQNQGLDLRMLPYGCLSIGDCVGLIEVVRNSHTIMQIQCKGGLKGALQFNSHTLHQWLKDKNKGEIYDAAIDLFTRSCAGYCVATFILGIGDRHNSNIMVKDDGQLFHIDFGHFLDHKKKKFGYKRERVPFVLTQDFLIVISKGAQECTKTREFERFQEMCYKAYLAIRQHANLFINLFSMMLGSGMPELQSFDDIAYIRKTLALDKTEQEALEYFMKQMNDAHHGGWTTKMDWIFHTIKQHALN

Assays:
[1] = target: T1, Recombinant PI3K p110α/p85 (Homo sapiens, UniProt P42336); assay: PI3K Assay (radiometric lipid kinase assay); format: biochemical; conditions: p110α/p85, 2 μM ATP, 1 hour at RT; read-out: IC50 (PI3Kα)
T1 construct: made in house
Experimental: Recombinant PI3K p110α/p85 was prepared in-house. Phosphatidylinositol (PtdIns), phosphotidylserine (PtdSer) and all other unspecified chemicals were purchased from Sigma-Aldrich. [γ^33P]ATP and Optiphase scintillant were obtained from Perkin Elmer.
Assays were performed in a final assay volume of 25 μL in 384-well Maxisorp plates (Nunc). Compounds were tested at 8 concentrations in 3-fold serial dilution, generally starting from 10 μM. Maxisorp plates were coated with 20 μL/well of a 1:1 mixture of PtdIns and PtdSer [0.1 mg/mL each dissolved in chloroform:ethanol (3:7)] and left overnight in a fume hood at room temperature (RT) to dry.
The enzyme reaction was created by pipetting 5 μL/well of compound (in 2.5% DMSO), 10 μL/well of enzyme (0.5 μg/mL p110α+1 μg/mL p85), and 10 μL/well of 5 μM ATP with 5 μCi/mL [γ^33P]ATP in assay buffer (final concentrations: 0.2 μg/mL p110α, 2 μM ATP, 0.05 μCi/well [γ^33P]ATP in 1× assay buffer: 100 mM Tris-HCl pH 7.0, 200 mM NaCl, 8 mM MgCl2). The reaction was incubated for 1 hour at RT and terminated with 30 μL/well of 50 mM EDTA solution. The plate was then washed twice with TBS, dried, and added with 30 μL/well of scintillant before it was counted in a MicroBeta Trilux.

Truncated mTOR kinase = target: T2, Truncated mTOR kinase (Homo sapiens, UniProt P42345); assay: mTOR Assay (radiometric phosphorylation of 4eBP1); format: biochemical; conditions: 4eBP1 substrate, 10 μM ATP, 1 hour at room temperature
T2 construct: Truncated mTOR kinase and His-tagged 4eBP1 were produced in-house
Experimental: Truncated mTOR kinase and His-tagged 4eBP1 were produced in-house. [γ^33P]-ATP was purchased from Amersham (GE Healthcare). All chemicals, unless otherwise stated, were from Sigma-Aldrich.
Phosphorylation assays were initially performed in a final volume of 20 μL in 384-well polypropylene plate (Greiner). Compounds were typically tested over the range from 100 μM to 0.006 μM, in 8 step dilutions, in duplicate. 10 μL/well of 2× Enzyme-Substrate solution (1.5 μg/mL mTOR, 40 μg/mL 4eBP1 in 1× assay buffer: 10 mM Hepes pH 7.5, 50 mM NaCl and 10 mM MnCl2) were first added to the sample plate containing 1 μL/well of test compound in neat DMSO. The reaction was initiated by adding 10 μL/well of 20 μM ATP solution (final assay concentration 10 μM ATP and 0.4 μCi/well of [γhu 33P]-ATP). After 1 hour incubation at room temperature, the reaction was terminated with 40 μL/well of 20 mM EDTA/1 mM ATP solution.
50 μL/well of the stopped reaction mix was then transferred to 384-well MultiScreenHTS-PH filter plate (Millipore) pre-added with 50 μL/well of 1% phosphoric acid. The plate was washed 4 times with 120 μL/well of 0.5% phosphoric acid via vacuum filtration. Finally, 10 μL/well of Optiphase™ SuperMix liquid scintillation cocktail (Perkin Elmer) was added. […]

SMILES	IC50 [1] [nM]	IC50 (Truncated mTOR kinase) [nM]
CCC(C)n1cnc2c(-c3cnc(N)nc3)nc(N3CCOCC3)nc21 (centres unmarked) [Compound 2, 5-(9-sec-butyl-2-morpholin-4-yl-9H-purin-6-yl)-pyrimidin-2-ylamine]	< 1000	–
CC[C@@H](C)n1cnc2c(-c3cnc(N)nc3)nc(N3CCOCC3)nc21 [Compound 25]	< 1000	< 1000
CCC(C)n1cnc2c(-c3cnc(N)nc3)nc(N3CCOCC3)nc21 (centres unmarked) [Compound 26]	–	< 1000
CC[C@H](C)n1cnc2c(-c3cnc(N)nc3)nc(N3CCOCC3)nc21 [Compound 26]	< 1000	–
